Test results reported in article PMC12144199.
Results are given in words; binding and its absence hold for the method and conditions named. In cells and extracts the contact can be indirect. Some entries that bind do so weakly or less than the wild type.

Sequences of proteins named here, by UniProt entry; tags and fusion partners are left off.
UniProt P07355: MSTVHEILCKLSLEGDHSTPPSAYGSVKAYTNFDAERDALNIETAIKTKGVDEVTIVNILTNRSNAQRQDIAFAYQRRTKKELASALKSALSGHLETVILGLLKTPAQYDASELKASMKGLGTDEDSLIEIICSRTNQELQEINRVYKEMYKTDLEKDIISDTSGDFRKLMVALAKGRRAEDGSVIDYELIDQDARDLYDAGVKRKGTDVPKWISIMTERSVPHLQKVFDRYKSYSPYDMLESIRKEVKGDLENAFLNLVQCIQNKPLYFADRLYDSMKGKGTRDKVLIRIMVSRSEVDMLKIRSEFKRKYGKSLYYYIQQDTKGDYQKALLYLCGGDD

Target: T1, S100A16 (human (endogenous in U2OS and MG-63)) (UniProt Q96FQ6)
T1 sequence: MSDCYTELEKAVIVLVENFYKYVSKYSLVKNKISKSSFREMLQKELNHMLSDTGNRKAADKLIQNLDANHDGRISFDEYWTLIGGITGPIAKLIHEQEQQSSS
Assay: co-IP; endogenous co-IP from U2OS and MG-63 RIPA lysates (1 mg protein); S100A16 antibody or ANXA2 antibody overnight at 4 °C, protein A/G magnetic beads 2 h; Western blot for S100A16 and ANXA2

binding: binds
Substance: Annexin A2 (from UniProt P07355 1-339)
